Data on 1 molecule can be found in paper PMC5488456.

Changes are numbered by the printed parent chain. In names and notes the source's numbering stands. No constants are given. Whether binding was seen depends on the method and setting. Binding seen in cells or lysates may run through a third protein. Some binding calls cover weakened binding; strength is not graded here.

The experiment addresses T1, ALDH1A3 G237R mutant protein (human) (UniProt P47895).
T1 sequence: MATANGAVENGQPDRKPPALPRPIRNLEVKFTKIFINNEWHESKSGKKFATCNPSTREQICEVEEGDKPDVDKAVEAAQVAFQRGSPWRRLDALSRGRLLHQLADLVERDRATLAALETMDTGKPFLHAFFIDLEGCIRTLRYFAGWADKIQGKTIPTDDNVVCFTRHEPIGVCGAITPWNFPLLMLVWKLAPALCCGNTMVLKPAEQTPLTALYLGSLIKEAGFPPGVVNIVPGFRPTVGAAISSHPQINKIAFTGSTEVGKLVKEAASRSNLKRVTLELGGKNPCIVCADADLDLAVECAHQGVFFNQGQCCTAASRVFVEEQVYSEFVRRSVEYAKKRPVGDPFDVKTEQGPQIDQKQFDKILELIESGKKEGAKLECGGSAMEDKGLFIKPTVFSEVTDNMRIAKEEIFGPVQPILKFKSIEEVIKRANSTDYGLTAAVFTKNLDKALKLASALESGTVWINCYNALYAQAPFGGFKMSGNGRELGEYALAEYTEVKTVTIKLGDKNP
The experiment can be described thus: co-IP; 293T cells transfected with HA- and FLAG-tagged ALDH1A3 constructs; extracted proteins incubated with 3 ug HA antibody, protein A+G agarose beads; immunoblot with anti-FLAG antibodies.

B1: ALDH1A3 R96H mutant protein (enzyme, UniProt P47895 1-512)
chain: T1 sequence with R96H, R237G
As to B1, the binding entry is listed as “binds weakly”.
